From a melanoma drug combination screen (doi:10.1371/journal.pone.0140310); values rounded.

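The test systems are human melanoma cell lines, treated with a pair of drugs for 72 h and then stained and imaged. Values are the share of nuclei positive for cleaved PARP as a percentage of the same share in the DMSO control: 100 is the control level, higher means more apoptosis. Concentrations were fixed for each drug; these are the higher of two levels. The file gives one value for each pair and line, without errors, so small differences may be noise. Basal and induced levels differ widely between cell lines.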 Only some of the drugs and lines screened are listed, without regard to their results. An entry leaves out what has no value listed here. A dash means that no value is listed here.

Drug key:
OSI-906 (2 µM): C[C@]1(O)C[C@@H](c2nc(-c3ccc4ccc(-c5ccccc5)nc4c3)c3c(N)nccn32)C1
darinaparsin (2 µM): C[As](C)SC[C@H](NC(=O)CC[C@H](N)C(=O)O)C(=O)NCC(=O)O
crizotinib (1 µM): C[C@@H](Oc1cc(-c2cnn(C3CCNCC3)c2)cnc1N)c1c(Cl)ccc(F)c1Cl
midostaurin (0.4 µM): CO[C@@H]1[C@H](N(C)C(=O)c2ccccc2)C[C@H]2O[C@]1(C)n1c3ccccc3c3c4c(c5c6ccccc6n2c5c31)C(=O)NC4
tamatinib (2 µM): COc1cc(Nc2ncc(F)c(Nc3ccc4c(n3)NC(=O)C(C)(C)O4)n2)cc(OC)c1OC
T0901317 (7 µM): O=S(=O)(c1ccccc1)N(CC(F)(F)F)c1ccc(C(O)(C(F)(F)F)C(F)(F)F)cc1
KU-0063794 (0.1 µM): COc1ccc(-c2ccc3c(N4CCOCC4)nc(N4C[C@@H](C)O[C@@H](C)C4)nc3n2)cc1CO
SU6656 (2 µM): CN(C)S(=O)(=O)c1ccc2c(c1)/C(=C/c1cc3c([nH]1)CCCC3)C(=O)N2
fludarabine (1 µM): Nc1nc(F)nc2c1ncn2[C@@H]1O[C@H](CO)[C@@H](O)[C@@H]1O
nutlin-3 (0.5 µM): COc1ccc(C2=N[C@@H](c3ccc(Cl)cc3)[C@@H](c3ccc(Cl)cc3)N2C(=O)N2CCNC(=O)C2)c(OC(C)C)c1

{"combination": "OSI-906 and tamatinib", "SK-MEL-2": 149, "MeWo": 137}
{"combination": "fludarabine and darinaparsin", "SK-MEL-2": 1700, "MeWo": 86.2}
{"combination": "T0901317 and crizotinib", "SK-MEL-2": 149, "MeWo": 160}
{"combination": "tamatinib and crizotinib", "MeWo": 211}
{"combination": "midostaurin and KU-0063794", "SK-MEL-2": 448, "MeWo": 138}
{"combination": "T0901317 and fludarabine", "MeWo": 177}
{"combination": "T0901317 and darinaparsin", "SK-MEL-2": 131, "MeWo": 126}
{"combination": "SU6656 and fludarabine", "SK-MEL-2": 553, "MeWo": 90.6}
{"combination": "nutlin-3 and SU6656", "SK-MEL-2": 51.9, "MeWo": 118}
{"combination": "SU6656 and tamatinib", "SK-MEL-2": 186, "MeWo": 278}
{"combination": "darinaparsin and OSI-906", "SK-MEL-2": 104, "MeWo": 172}
{"combination": "fludarabine and crizotinib", "SK-MEL-2": 1340, "MeWo": 36.9}
{"combination": "nutlin-3 and KU-0063794", "SK-MEL-2": 70.8, "MeWo": 152}
{"combination": "tamatinib and T0901317", "SK-MEL-2": 99.0, "MeWo": 128}
{"combination": "KU-0063794 and T0901317", "SK-MEL-2": 173, "MeWo": 52.5}
{"combination": "tamatinib and KU-0063794", "SK-MEL-2": 155, "MeWo": 108}
{"combination": "tamatinib and nutlin-3", "SK-MEL-2": 106, "MeWo": 163}
{"combination": "nutlin-3 and fludarabine", "SK-MEL-2": 1080, "MeWo": 91.0}
{"combination": "fludarabine and OSI-906", "SK-MEL-2": 1560, "MeWo": 63.3}
{"combination": "tamatinib and fludarabine", "SK-MEL-2": 454, "MeWo": 73.9}
{"combination": "nutlin-3 and T0901317", "SK-MEL-2": 196, "MeWo": 168}
{"combination": "SU6656 and crizotinib", "SK-MEL-2": 88.9, "MeWo": 473}
{"combination": "midostaurin and SU6656", "SK-MEL-2": 144, "MeWo": 459}
{"combination": "OSI-906 and nutlin-3", "SK-MEL-2": 77.1, "MeWo": 380}
{"combination": "midostaurin and darinaparsin", "SK-MEL-2": 102, "MeWo": 228}
{"combination": "crizotinib and KU-0063794", "SK-MEL-2": 215, "MeWo": 119}
{"combination": "tamatinib and midostaurin", "SK-MEL-2": 368, "MeWo": 115}
{"combination": "SU6656 and OSI-906", "SK-MEL-2": 115, "MeWo": 192}
{"combination": "SU6656 and KU-0063794", "SK-MEL-2": 75.2, "MeWo": 82.5}
{"combination": "midostaurin and crizotinib", "SK-MEL-2": 196, "MeWo": 238}
{"combination": "OSI-906 and KU-0063794", "SK-MEL-2": 68.4, "MeWo": 87.5}
{"combination": "nutlin-3 and midostaurin", "SK-MEL-2": 149, "MeWo": 213}
{"combination": "KU-0063794 and darinaparsin", "SK-MEL-2": 138, "MeWo": 173}
{"combination": "T0901317 and SU6656", "SK-MEL-2": 81.6, "MeWo": 223}
{"combination": "darinaparsin and nutlin-3", "SK-MEL-2": 85.7, "MeWo": 112}
{"combination": "midostaurin and T0901317", "SK-MEL-2": 264, "MeWo": 97.5}
{"combination": "crizotinib and OSI-906", "SK-MEL-2": 127, "MeWo": 83.0}
{"combination": "crizotinib and darinaparsin", "SK-MEL-2": 92.9, "MeWo": 123}
{"combination": "midostaurin and fludarabine", "SK-MEL-2": 812, "MeWo": 204}
{"combination": "nutlin-3 and crizotinib", "SK-MEL-2": 143, "MeWo": 167}

Repeated from the top, 5 entries:

Combination	SK-MEL-2	MeWo
OSI-906 and tamatinib	149	137
fludarabine and darinaparsin	1700	86.2
T0901317 and crizotinib	149	160
tamatinib and crizotinib	-	211
midostaurin and KU-0063794	448	138